PubChem BioAssay AID504793 | Drosophila RNAi Screening Center – 2011

- Test: 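Genes required for cells to halt at G2/M after double-strand DNA breaks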 (primary screen)
- System: Drosophila S2R+ cells
- Reagent: long dsRNA against Drosophila genes, about 0.25 µg dsRNA per well
- Timing: 4 days of dsRNA, then 4 hours of drug before read-out
- Challenge: doxorubicin 0.5 µM for 4 hours to cause double-strand breaks, in cells also given a low, harmless dose of dsRNA against nbs to sensitise the assay
- Read-out: 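Mitotic index as the number of phospho-histone H3-positive cells in each well following doxorubicin, given as raw counts without normalisation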
- Scale: mitotic cells: higher = more cells in mitosis, weaker G2 arrest
- Active means: 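a call needs confirmation in secondary tests, with other dsRNAs and a check of mitotic timing without damage, not just a high primary count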
- Meaning of the calls: active = confirmed in follow-up tests; inactive = not confirmed
The deposit covers about 23,000 reagents; shown is a random part of those with a known target gene and a result. Over the whole deposit, 62 (0.27%) are marked active. 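Calls come from follow-up tests whose scores are not deposited, so confirmed genes may have low counts here; counts are not normalised per plate.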 The raw values are shown without normalisation. A number with no mark means an inactive call. Names joined by + are all predicted targets of the reagent. No sequences are given here.

gene	amplicon	mitotic cells, replicate 1
Prp38	DRSC07060	4
Prp38	DRSC28968	4
CG31446	DRSC13111	10
Tnpo	DRSC11309	3
Tnpo	DRSC25104	1
CG15170	DRSC02471	5
CCT2	DRSC18415	163
CCT2	DRSC27831	2
CG13634	DRSC14635	13
CG1344	DRSC04837	2
nAChRbeta2	DRSC17010	4
CG32982	DRSC02677	8
CG32982	DRSC03269	4
CG32982	DRSC21912	6
beat-IIb	DRSC13219	7
beat-IIb	DRSC14816	10
beat-IIb	DRSC15546	5
trol	DRSC18613	15
trol	DRSC18814	14
trol	DRSC39142	5
CG44005	DRSC36534	13
CG44005	DRSC36535	6
CG8066	DRSC16374	6
CG8066	DRSC24633	9
Tim17b1	DRSC12179	10
CG6015	DRSC15948	9
CG6015	DRSC28104	4
CG6550	DRSC07001	3
CG15152	DRSC02453	3
Fic	DRSC03247	10
cyp33 + CG34194	DRSC05666	5
CG9727	DRSC12585	9
CG9727	DRSC28868	1
Pgls	DRSC19769	7
hng1	DRSC04555	5
Rpt1	DRSC07542	43
Pld3	DRSC03167	8
GramD1B	DRSC00426	5
GramD1B	DRSC00591	5
GramD1B	DRSC23885	9
GramD1B	DRSC28705	5
mRpS28	DRSC06939	6

The list goes on (9 carried over from the part before).
gene	amplicon	mitotic cells, replicate 1
Pgls	DRSC19769	7
hng1	DRSC04555	5
Rpt1	DRSC07542	43
Pld3	DRSC03167	8
GramD1B	DRSC00426	5
GramD1B	DRSC00591	5
GramD1B	DRSC23885	9
GramD1B	DRSC28705	5
mRpS28	DRSC06939	6
Rpn6	DRSC07541	29
pHCl-2	DRSC14306	5
CG14538 (retired record)	DRSC02396	4
CG14538 (retired record)	DRSC29424	11
RluA-2	DRSC02939	10
pyd3	DRSC15459	11
pyd3	DRSC21640	14
onecut	DRSC17175	8
onecut	DRSC26072	5
CG31419	DRSC15771	7
CG31419	DRSC26294	6
Jhbp3	DRSC12247	5
CG3088	DRSC10352	8
scny	DRSC10509	11
scny	DRSC23229	13
scny	DRSC27520	20
slim	DRSC06921	8
CG32236	DRSC08117	10
Letm1	DRSC04476	5
antr	DRSC22392	6
CG12490	DRSC04123	5
CG33263	DRSC10108	4
mAcon2	DRSC15629	4
mAcon2	DRSC24696	8
tim	DRSC00841	10
Psf3	DRSC18216	5
Psf3	DRSC21487	13
Corin	DRSC06818	10
Corin	DRSC28927	4
Sox102F	DRSC17204	10
Sox102F	DRSC25915	6
NT5E-2	DRSC06893	4
Rcd6	DRSC06054	7
Rcd6	DRSC27115	9
CG5509	DRSC15822	7
CkIIalpha	DRSC11946	9
sesB	DRSC20371	8
sesB	DRSC29874	17
CG44153	DRSC02228	5
CG44153	DRSC02229	4
CG44153	DRSC02902	2
CG44153	DRSC02903	6
CG17580	DRSC06683	4
CG17580	DRSC27009	5
CG1236	DRSC12203	8
Atx2	DRSC23010	19
S-Lap1	DRSC10627	6
CG9166	DRSC07842	5
PGRP-SC1a	DRSC06482	9
CG15024	DRSC08478	4
Pde6	DRSC16401	4
Pde6	DRSC16402	8
Pde6	DRSC16403	6
CG8229	DRSC07114	2
CG8229	DRSC27067	5
apolpp	DRSC17216	5
eag	DRSC19067	17
eag	DRSC20328	13
eag	DRSC28295	2
ninaG	DRSC16102	4
He + NimB5	DRSC22876	4
QIL1	DRSC10888	3
Pdfr	DRSC18614	9
CG30496	DRSC06805	5
Jon25Biii	DRSC03115	8
Jon25Biii	DRSC25069	13
CG13578	DRSC04214	9
Ing5	DRSC03188	10
Ing5	DRSC25216	11
